Results are given in words; binding and its absence hold for the method and conditions named. Binding seen in cells or lysates may run through a third protein. Some results given as binding are weak or reduced against the parent protein; the word gives no strength. For some of these results: Sequences can lack the tags named with a protein.
Key:
Test in all cases: split reporter
[1] = biological target: PLRV P3a with a split-YFP half fused to its N-terminus (Potato leafroll virus) (UniProt P0DTK2)
[2] = biological target: T1, PLRV P17 movement protein with a split-YFP half fused to its C-terminus (Potato leafroll virus) (UniProt P17524)
T1 sequence: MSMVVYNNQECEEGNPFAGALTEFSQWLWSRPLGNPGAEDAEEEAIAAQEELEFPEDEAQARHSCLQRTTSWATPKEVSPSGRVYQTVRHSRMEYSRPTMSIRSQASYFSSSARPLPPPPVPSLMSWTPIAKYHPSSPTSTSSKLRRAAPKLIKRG

[3] = biological target: PLRV P3a with a split-YFP half fused to its C-terminus (Potato leafroll virus) (UniProt P0DTK2)

With “PLRV P3a with a split-YFP half fused to its N-terminus (from UniProt P0DTK2 2-45)” the binding [1] was “binds”.

MDYKFLAGFALGFSSAIPFSVAGLYFVYLKISSHVRSIVNEYGRG (peptide, UniProt P0DTK2 1-45) [PLRV P3a with a split-YFP half fused to its C-terminus] was tested, and the binding [2] was “binds” and the binding [3] was “binds”.

B1: PLRV P17 movement protein with a split-YFP half fused to its C-terminus (protein, UniProt P17524 1-156)
chain: T1 sequence
With B1 the binding [2] was “binds”.

Reference: paper PMC6265731
